These are yes or no findings as the source states them, for the method shown. Binding seen in cells or lysates may run through a third protein. Binding can be weak; no strength is given. Where a sequence is shown, tags or fusion partners need not be part of it.

By UniProt entry, the sequences of proteins in these tests, tags left out. Where a name states a change or a piece, a line headed by the entry shows the natural chain unless it says otherwise.
UniProt Q9VNE4: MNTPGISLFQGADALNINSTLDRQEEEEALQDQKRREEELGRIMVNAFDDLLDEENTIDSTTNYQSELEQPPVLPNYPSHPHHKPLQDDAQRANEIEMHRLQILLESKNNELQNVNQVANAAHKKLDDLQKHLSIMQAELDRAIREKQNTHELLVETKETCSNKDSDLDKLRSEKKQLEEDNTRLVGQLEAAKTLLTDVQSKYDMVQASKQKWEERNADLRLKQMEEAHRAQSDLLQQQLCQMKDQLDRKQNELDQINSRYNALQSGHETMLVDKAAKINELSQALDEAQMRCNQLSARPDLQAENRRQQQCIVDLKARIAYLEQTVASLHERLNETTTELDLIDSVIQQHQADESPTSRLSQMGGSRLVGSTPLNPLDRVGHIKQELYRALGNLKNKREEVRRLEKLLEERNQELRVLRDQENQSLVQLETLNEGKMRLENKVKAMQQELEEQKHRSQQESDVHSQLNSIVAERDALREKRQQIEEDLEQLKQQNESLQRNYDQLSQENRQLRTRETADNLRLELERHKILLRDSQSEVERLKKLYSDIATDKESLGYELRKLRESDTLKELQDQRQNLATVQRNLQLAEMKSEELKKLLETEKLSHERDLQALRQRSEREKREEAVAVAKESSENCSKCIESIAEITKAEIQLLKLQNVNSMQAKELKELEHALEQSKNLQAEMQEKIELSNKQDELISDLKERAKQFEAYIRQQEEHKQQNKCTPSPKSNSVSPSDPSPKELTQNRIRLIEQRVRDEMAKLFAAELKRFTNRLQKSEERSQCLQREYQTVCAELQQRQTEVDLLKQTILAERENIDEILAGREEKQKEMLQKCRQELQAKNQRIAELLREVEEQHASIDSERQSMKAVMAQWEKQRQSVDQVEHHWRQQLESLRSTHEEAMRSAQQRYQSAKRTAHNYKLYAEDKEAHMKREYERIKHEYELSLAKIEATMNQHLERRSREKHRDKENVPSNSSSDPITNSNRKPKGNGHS

Test [1] addresses T1, NYFP-Plk4 (Drosophila melanogaster) (UniProt O97143).
T1 sequence: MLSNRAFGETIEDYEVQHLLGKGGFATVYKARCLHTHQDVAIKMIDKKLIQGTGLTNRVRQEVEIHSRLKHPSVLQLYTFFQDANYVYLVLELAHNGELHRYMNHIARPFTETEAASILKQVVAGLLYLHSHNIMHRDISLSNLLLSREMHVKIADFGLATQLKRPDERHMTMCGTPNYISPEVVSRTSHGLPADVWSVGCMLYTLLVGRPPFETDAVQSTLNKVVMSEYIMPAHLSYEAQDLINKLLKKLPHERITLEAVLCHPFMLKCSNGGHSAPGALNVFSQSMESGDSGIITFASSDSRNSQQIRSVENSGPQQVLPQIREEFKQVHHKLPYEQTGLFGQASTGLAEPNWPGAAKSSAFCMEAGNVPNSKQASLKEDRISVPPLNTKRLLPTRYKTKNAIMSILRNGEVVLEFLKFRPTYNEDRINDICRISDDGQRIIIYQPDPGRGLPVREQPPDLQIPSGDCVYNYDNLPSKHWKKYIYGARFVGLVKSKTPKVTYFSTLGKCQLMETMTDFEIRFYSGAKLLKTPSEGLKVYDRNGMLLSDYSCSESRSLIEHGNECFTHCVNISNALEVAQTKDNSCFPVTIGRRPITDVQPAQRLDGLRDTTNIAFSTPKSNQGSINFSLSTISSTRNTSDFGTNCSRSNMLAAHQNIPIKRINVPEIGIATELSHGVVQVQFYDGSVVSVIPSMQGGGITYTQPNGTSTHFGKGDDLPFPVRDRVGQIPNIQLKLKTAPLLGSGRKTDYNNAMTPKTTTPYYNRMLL
Nature of the test: split reporter; BiFC with split YFP in wild type D.Mel-2 cells, fixed and stained with anti-Sas6 or anti-Asl.

Test [2] deals with T1, NYFP-Plk4 (Drosophila melanogaster). Nature of the test: split reporter; BiFC with split YFP in D.Mel-2 cells expressing mCherry-Sas6; 0.5 mM CuSO4 for 24 h; live cell imaging.

For CYFP-Asl (from UniProt Q9VNE4), the binding entry in test [1] and in test [2] was “binds” each time.

The values are drawn from PMC9917060.
